Values of other authors, collected in EP4660196A1, “CRYSTAL FORM OF COMPOUND, PREPARATION METHOD THEREFOR AND USE THEREOF” (Felicamed Biotechnology Co., Ltd., priority 2023, dated 2024).
For at least one compound, name, drawing or mass did not settle the structure.

Protein sequences, listed by entry. Tags and fused reporters are not part of them. Residues count along the entry.
UniProt O96017, whole entry, species assumed: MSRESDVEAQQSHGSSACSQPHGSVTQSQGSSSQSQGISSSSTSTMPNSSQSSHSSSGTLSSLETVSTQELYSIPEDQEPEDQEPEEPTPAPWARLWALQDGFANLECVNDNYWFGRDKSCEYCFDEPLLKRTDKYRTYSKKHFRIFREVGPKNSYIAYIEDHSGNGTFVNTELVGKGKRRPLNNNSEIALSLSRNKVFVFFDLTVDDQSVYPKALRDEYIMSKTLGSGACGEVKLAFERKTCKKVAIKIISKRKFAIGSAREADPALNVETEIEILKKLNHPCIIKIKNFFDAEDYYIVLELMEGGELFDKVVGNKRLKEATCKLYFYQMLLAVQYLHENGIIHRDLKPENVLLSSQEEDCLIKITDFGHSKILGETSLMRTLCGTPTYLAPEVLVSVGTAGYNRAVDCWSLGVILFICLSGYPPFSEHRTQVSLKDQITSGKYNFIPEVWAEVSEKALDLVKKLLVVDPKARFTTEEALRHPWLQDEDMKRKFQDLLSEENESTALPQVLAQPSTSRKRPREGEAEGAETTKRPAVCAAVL
UniProt P08581, 25-1390: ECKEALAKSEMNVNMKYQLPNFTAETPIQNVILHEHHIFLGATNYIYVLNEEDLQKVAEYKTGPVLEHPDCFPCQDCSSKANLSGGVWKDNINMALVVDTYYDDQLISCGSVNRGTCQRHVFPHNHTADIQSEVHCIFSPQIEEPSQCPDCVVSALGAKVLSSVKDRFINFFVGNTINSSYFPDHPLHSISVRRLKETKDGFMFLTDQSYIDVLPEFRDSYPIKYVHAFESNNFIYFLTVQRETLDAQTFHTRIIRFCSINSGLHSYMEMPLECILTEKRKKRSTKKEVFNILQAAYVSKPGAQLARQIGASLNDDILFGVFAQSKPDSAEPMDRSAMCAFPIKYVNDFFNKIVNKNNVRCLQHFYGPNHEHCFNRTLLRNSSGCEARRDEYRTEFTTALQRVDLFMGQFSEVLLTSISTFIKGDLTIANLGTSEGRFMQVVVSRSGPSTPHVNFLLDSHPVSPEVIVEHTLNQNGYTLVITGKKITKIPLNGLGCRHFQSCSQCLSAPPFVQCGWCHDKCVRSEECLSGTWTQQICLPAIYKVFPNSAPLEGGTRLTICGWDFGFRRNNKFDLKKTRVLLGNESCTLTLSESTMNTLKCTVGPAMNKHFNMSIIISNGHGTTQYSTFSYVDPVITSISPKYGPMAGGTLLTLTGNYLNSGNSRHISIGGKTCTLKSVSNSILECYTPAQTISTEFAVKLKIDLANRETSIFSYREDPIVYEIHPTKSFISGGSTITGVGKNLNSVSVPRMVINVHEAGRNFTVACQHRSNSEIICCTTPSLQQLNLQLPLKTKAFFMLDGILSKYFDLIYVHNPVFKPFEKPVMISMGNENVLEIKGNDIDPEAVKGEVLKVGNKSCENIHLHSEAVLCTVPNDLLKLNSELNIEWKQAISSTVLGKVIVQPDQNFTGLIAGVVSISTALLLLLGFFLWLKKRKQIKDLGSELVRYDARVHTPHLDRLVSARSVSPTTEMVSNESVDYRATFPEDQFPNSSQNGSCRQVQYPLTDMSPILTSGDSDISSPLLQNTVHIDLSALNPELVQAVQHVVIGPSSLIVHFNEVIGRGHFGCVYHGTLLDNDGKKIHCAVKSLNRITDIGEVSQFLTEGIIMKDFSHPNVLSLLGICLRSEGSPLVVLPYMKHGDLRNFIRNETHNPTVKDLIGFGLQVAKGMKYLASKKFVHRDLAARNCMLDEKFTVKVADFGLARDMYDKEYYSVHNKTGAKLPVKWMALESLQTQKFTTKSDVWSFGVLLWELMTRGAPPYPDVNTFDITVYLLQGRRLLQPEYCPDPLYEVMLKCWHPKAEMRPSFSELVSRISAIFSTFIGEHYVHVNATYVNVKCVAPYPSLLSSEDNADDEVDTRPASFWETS

What was measured:
Chk2 = Chk2 (Homo sapiens, UniProt O96017); details: cited from earlier work
c-Met = c-Met (Homo sapiens, UniProt P08581); details: cited from earlier work

CCS(=O)(=O)N1CC(CC#N)(n2cc(-c3ncnc4[nH]ccc34)cn2)C1 [Baricitinib]
inhibitory effect (Chk2): no inhibitory effect | inhibitory effect (c-Met): no inhibitory effect
